The values below come from patent US10662451B2, “Microorganisms and methods for the coproduction 1,4-butanediol and gamma-butyrolactone” (priority 2009, dated 2020).

Read-outs that look alike come from different tables or passages of the source.

This data set relates to C. acetobutylicum ATCC 824. The settings on record: Schaedler broth with 10 mM 4-HB, anaerobic, 30° C.

Take `OCCCCO` [Gene 14-BDO, 1,4-butanediol]: the 14-BDO concentration (1 day) was found to be 0.1 mM, the 14-BDO concentration (2 days) was found to be 0.9 mM and the 14-BDO concentration (7 days) was found to be 1.5 mM.
